According to the supplement of paper PMC7666118:
The list shows a part of the results.

Chains of the proteins cited; added tags and fusions are not shown. Lines headed by an entry give the natural chain unless they say otherwise; changes in a name come on top.
UniProt O15040: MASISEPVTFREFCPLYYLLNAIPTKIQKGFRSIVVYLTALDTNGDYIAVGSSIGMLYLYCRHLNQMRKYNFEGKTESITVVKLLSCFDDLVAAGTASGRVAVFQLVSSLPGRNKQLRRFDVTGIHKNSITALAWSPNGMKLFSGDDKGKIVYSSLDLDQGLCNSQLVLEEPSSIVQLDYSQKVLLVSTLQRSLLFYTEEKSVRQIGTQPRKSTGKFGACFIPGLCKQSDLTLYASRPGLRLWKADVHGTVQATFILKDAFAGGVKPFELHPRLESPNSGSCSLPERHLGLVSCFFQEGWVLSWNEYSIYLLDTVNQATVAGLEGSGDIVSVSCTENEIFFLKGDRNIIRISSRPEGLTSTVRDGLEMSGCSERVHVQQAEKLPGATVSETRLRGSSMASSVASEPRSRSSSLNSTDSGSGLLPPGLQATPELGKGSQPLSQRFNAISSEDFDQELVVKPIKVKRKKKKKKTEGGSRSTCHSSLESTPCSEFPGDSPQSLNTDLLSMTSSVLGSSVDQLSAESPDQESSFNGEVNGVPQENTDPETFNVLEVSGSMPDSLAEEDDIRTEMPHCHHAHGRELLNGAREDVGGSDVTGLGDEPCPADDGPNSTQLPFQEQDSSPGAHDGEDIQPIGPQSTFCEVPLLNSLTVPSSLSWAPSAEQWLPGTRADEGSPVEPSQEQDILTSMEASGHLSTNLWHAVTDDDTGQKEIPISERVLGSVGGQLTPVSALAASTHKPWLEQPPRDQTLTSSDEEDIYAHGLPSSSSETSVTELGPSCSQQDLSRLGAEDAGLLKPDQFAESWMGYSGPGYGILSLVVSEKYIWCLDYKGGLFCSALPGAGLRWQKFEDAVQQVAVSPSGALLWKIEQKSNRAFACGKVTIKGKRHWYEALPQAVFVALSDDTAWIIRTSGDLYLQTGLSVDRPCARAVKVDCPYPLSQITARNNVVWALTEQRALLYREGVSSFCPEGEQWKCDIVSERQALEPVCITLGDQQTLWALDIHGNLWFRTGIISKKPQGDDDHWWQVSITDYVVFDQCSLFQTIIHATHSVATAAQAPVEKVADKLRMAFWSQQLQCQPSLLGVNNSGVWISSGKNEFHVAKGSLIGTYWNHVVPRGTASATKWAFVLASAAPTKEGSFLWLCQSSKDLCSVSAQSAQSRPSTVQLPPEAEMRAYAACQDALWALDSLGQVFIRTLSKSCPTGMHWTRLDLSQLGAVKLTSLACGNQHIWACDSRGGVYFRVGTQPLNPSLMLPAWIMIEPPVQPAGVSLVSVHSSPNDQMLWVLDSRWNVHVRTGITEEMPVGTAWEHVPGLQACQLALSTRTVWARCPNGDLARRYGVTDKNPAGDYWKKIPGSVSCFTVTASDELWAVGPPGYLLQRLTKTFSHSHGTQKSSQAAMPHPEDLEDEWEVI
UniProt Q13478: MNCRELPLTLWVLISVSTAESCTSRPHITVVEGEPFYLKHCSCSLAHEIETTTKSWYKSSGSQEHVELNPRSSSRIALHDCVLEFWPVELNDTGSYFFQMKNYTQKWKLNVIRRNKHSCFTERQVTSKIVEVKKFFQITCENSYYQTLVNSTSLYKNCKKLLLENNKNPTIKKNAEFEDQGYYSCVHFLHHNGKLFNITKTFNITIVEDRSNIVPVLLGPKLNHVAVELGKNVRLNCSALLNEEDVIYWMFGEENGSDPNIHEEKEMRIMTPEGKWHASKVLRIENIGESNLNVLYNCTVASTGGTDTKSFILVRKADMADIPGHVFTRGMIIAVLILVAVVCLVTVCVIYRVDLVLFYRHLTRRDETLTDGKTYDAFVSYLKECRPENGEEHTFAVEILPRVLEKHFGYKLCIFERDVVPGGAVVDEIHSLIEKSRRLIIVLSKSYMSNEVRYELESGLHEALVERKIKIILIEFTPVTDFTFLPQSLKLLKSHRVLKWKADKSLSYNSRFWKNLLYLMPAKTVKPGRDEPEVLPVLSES
UniProt Q9NX55: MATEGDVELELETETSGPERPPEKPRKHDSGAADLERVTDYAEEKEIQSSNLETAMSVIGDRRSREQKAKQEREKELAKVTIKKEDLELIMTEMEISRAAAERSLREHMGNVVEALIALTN
UniProt Q13123, whole entry: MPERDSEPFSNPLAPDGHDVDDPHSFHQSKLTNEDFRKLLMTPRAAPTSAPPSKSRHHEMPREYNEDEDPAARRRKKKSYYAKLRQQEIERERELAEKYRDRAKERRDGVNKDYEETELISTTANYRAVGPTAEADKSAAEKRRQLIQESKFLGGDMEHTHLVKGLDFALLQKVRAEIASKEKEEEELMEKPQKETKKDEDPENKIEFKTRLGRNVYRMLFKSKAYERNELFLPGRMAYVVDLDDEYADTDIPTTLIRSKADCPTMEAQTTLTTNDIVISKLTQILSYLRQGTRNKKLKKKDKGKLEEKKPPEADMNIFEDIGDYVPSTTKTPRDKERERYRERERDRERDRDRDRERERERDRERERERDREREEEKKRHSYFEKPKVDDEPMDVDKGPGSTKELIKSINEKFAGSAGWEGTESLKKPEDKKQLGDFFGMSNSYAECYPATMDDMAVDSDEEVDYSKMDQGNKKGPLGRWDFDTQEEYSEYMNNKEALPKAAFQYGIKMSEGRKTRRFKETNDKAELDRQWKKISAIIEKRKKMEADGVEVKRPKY
UniProt A1L0T0: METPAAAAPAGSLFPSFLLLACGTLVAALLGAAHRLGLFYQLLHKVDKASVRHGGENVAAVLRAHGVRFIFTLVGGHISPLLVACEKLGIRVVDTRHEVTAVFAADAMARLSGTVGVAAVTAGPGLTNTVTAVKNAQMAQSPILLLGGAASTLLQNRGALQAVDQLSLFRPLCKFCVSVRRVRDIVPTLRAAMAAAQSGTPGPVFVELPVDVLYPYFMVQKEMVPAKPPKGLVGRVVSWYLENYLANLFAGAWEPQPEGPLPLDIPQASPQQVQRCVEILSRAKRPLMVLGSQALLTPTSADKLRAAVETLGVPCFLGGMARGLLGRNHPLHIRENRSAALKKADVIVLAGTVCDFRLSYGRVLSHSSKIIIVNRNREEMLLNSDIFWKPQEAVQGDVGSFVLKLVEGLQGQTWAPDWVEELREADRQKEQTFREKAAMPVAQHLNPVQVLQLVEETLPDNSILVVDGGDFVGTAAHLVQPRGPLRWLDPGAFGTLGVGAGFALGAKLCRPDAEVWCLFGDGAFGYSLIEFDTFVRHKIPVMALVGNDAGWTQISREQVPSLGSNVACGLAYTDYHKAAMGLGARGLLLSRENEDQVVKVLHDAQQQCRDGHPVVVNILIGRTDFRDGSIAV
UniProt Q9NSE4: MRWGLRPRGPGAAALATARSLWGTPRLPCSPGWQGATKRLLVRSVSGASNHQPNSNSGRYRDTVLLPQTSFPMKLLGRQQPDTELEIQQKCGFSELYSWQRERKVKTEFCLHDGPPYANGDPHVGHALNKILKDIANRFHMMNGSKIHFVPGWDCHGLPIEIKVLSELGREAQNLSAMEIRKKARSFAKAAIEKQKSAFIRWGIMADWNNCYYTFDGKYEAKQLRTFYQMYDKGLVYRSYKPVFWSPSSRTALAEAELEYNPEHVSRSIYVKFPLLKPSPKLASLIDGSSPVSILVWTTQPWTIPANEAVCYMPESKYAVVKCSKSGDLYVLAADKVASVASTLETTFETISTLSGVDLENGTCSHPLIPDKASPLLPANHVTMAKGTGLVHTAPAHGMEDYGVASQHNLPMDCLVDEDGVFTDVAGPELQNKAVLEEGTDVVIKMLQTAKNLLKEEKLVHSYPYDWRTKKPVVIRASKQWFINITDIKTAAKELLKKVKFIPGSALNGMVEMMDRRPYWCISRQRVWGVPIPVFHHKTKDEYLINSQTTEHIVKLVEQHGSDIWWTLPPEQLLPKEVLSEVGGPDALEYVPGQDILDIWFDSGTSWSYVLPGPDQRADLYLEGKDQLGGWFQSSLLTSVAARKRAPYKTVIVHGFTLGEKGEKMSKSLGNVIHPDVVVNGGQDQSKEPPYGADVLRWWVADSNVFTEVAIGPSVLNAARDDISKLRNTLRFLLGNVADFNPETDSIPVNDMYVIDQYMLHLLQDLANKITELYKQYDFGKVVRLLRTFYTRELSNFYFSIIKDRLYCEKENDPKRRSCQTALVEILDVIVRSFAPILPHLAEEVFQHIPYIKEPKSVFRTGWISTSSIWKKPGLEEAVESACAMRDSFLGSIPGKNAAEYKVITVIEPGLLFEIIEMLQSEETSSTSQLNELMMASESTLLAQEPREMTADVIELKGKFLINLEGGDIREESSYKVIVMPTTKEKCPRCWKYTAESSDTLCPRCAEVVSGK
UniProt Q9H0C8: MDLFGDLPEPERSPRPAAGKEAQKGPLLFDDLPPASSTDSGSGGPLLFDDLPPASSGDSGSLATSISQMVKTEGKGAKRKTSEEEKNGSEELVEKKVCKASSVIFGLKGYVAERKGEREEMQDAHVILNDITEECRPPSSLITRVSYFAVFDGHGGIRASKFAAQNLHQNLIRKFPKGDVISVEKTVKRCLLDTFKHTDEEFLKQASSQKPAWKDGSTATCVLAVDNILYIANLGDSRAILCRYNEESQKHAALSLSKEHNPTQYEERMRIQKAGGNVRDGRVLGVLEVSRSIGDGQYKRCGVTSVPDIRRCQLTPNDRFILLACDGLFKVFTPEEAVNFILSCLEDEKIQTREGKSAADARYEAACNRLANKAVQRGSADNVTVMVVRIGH
UniProt Q9BW62: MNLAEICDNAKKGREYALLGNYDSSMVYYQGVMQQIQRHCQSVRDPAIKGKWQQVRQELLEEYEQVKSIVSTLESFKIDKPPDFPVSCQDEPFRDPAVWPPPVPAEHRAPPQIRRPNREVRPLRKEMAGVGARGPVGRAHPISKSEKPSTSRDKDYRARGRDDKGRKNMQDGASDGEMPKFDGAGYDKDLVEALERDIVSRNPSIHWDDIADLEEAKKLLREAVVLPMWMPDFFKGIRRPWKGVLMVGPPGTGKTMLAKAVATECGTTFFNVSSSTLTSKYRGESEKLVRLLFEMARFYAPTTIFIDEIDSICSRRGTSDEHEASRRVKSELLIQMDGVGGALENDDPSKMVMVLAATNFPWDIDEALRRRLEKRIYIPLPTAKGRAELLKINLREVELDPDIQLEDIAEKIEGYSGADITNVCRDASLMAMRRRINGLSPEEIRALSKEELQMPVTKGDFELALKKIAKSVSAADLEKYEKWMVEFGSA
UniProt Q14005: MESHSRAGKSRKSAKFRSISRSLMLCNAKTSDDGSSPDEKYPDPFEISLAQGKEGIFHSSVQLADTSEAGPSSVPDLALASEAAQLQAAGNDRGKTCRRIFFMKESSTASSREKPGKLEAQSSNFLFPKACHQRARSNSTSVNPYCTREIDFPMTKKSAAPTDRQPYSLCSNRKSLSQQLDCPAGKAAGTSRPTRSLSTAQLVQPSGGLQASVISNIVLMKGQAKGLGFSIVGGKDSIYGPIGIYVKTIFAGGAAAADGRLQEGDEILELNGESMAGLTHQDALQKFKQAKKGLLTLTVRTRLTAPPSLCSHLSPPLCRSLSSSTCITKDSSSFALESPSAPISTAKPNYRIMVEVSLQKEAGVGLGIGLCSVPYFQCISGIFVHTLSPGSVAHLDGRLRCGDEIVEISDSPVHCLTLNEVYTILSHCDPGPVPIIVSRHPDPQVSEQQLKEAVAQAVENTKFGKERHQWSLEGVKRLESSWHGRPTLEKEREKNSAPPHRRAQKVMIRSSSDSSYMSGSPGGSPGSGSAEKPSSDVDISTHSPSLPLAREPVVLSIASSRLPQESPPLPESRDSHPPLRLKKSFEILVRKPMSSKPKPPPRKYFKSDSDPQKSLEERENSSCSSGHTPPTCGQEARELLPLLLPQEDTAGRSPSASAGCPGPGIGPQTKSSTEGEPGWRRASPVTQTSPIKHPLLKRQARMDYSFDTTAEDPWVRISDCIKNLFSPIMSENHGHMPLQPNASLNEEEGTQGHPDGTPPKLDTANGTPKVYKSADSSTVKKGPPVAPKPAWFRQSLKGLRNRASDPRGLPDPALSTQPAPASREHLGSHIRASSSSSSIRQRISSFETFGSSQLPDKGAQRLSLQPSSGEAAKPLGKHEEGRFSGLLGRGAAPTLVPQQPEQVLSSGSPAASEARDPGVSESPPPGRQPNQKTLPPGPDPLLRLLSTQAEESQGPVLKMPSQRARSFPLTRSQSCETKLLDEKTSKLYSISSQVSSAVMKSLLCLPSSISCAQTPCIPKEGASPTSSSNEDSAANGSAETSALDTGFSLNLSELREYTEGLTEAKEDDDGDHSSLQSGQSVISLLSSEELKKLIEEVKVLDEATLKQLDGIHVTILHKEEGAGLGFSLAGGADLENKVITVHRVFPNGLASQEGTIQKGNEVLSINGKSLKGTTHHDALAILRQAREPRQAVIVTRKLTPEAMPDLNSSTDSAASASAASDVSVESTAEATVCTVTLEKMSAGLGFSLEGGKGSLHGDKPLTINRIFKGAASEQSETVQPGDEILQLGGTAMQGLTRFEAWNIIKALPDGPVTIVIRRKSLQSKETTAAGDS

These targets were tested with COc1ccc(Cn2ccc3cc(C)c(C(=O)NO)cc32)cc1 (assay: dose-dependent thermal stabilisation call (2D-TPP, DLPTP, 10% FDR) (binary (1 = stabilised)); higher = stabilised by the compound). Conditions: system: HL-60 intact cells; concentration range 0.04-10 µM.
Description: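 2D thermal proteome profiling in intact HL-60 cells treated with BRD-3811 (0, 0.04, 0.29, 2, 10 uM) for 90 min at 37 C, then heated 3 min at one of 12 temperatures (42-63.9 C). Soluble protein was quantified by TMT10 MS. The value is the DLPTP call of the paper: dose-dependent thermal stabilisation over all temperatures at 10% FDR (F-test of a dose-response against a flat model); one experiment, one call per tested protein.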

| Target | dose-dependent thermal stabilisation call |
| --- | --- |
| KIAA0329 (UniProt O15040) | inactive: 0 |
| IL18R1 (UniProt Q13478) | inactive: 0 |
| HYPK (UniProt Q9NX55) | inactive: 0 |
| IK (UniProt Q13123) | inactive: 0 |
| ILVBL (UniProt A1L0T0) | inactive: 0 |
| IARS2 (UniProt Q9NSE4) | inactive: 0 |
| ILKAP (UniProt Q9H0C8) | inactive: 0 |
| KATNAL1 (UniProt Q9BW62) | inactive: 0 |
| IL16 (UniProt Q14005) | inactive: 0 |
| INTS1 (UniProt Q8N201) | inactive: 0 |

Reformatted: entries from further up.
Target | dose-dependent thermal stabilisation call
ILVBL (UniProt A1L0T0) | inactive: 0
ILKAP (UniProt Q9H0C8) | inactive: 0
